From PMC5171793
These are yes or no findings as the source states them, for the method shown. In cells and extracts the contact can be indirect. Here binding means that the protein was enriched with, or labelled near, the bait; the list need not be complete. No binding means not detected with the bait.

Legend:
[1] = molecular target: Myc-tagged Scc1 (Drosophila); experiment: affinity purification with mass spectrometry; 1 mg total protein extract of S2 cells expressing Myc-tagged Scc1 (control RNAi or san RNAi) in NB buffer; anti-c-Myc magnetic beads, 1 hr at 4 °C; LC-MS/MS; cells with an empty plasmid as negative control
[2] = molecular target: Scc1/Rad21/Vtd (endogenous Scc1) (Drosophila (endogenous in S2 cells)); experiment: affinity purification with mass spectrometry; 1 mg total protein extract of Drosophila S2 cells (control RNAi or san RNAi) in NB buffer; rabbit anti-Scc1 then Dynabeads Protein G, 4 °C; LC-MS/MS; pre-immune serum as negative control

binding [1]: no binding
binding [2]: no binding
B1: Dalmatian/Sororin (protein, UniProt Q9VH89 1-857)
chain: MVRTRPVPCVPSPDVNTATRRNPGRPKKQSIGADLSTTISKPGRPKKLSIGADLTTIRKPGRPKKLGADLTTIIRKPGRPTKLSNKQSLTALNEPECRIRKCVVKIRRIKVKNGVVSEISRNDAPDVDASTFEPARNSTMYIPSKVQKSTQPQNIKENVAGPETSPCQQRIRSKSPSGPAAEISPKKPPRFFHRDQPLTRTRSSVTRNVFDFLSQSQIEDDSDREDPAADIIQRLVKDGKACVMVRSRKIGKPRAKRTAKKVRPVGNRRKVSTKDNEPEPVKVVPKSIEPRLQKPSRSLSTIFEPEEDYSNDSEHGYVQPIEVPVQVHVEPSTSKQAHEGAYSNLARSVMLNQTQAQNPLPSTDRRRELINMARQLVSTPLNRRAPPVTDVSATTTALSPIAHQSPNAVRTAGGKSPWRVSDDSPLPNTFMFGFNNSQMPSYSSDHVQRRHVYVPDSPVEHAENIPHEESICPPLHEQNHDSNANDSNEENRPPPTISKSMSINDQESEENAENFVHLPNPRRTLQKRTPFKDINILEVVTLPSWKKNVTATVSKEITPTRVAPRPMATSSPAQRSQTRSNLFGFDDDFACEDIPRKSTTPSKGIAPTSMSLNREVTPALANRNQTEVNTFGCNEILPCENIPKEKETNTEERTSSSQNLFGFDEFITESQDSPANFTGLSQNVNLHDKLHRLAELRPRDGELPQVSYTSIRSDCLGESHSKQTDIRYMLCSTMIAPPRPAKRKPAAPTARESMGLFRVDQDEPEQSFADKQPRRTYVKERPQRKRKKRVQILYIESESEDEDEQDSHDKSLDSPEKKRHHVKRPRRDIEHEAKLEQFVTSFNKQCEEVEKFPVIIE
